Results from patent US20160207893A1, “NOVEL CALCIUM MODULATORS” (Myotherix, Inc., priority 2014, published 2016).
Some of these results come from one statement about several compounds together.

System: FDB fibers from WT mice
Assay: Ca2+ transients during repetitive electrical stimulation in isolated FDB fibers (Mag-fluo-4)
Assay type: cell-based, mouse
Conditions: at 1 μM; amplitude of calcium transients with repetitive electrical stimulation; MagFluo 4; FDB fibers from WT mice (FIG. 1)

## COc1cc2c(cn1)SCCN(Cc1ccc(C(=O)O)cc1)C2 [Example 2, 4-((7-Methoxy-2,3-dihydropyrido[4,3-f][1,4]thiazepin-4(5H)-yl)methyl)benzoic acid]
  reduction of FDB Ca2+ transients: > 20%

## COc1cnc2c(c1)CN(Cc1ccc(C(=O)O)cc1)CCS2 [Example 13, 4-((7-Methoxy-2,3-dihydropyrido[3,2-f][1,4]thiazepin-4(5H)-yl)methyl)benzoic acid]
  reduction of FDB Ca2+ transients: > 20%
